This passage reports binding results from publication doi:10.1101/264788.

The chains behind the UniProt entries cited, without tags or fusion partners.
UniProt P50613: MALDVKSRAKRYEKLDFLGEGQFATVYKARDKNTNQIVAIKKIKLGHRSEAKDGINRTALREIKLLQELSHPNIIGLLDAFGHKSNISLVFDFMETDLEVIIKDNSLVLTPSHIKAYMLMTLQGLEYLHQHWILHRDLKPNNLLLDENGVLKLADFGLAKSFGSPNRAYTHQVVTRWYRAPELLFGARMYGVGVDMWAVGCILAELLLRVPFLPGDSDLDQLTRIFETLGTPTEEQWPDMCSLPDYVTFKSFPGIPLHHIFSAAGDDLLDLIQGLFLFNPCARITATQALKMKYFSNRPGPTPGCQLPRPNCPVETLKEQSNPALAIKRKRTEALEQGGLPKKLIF
UniProt P49336: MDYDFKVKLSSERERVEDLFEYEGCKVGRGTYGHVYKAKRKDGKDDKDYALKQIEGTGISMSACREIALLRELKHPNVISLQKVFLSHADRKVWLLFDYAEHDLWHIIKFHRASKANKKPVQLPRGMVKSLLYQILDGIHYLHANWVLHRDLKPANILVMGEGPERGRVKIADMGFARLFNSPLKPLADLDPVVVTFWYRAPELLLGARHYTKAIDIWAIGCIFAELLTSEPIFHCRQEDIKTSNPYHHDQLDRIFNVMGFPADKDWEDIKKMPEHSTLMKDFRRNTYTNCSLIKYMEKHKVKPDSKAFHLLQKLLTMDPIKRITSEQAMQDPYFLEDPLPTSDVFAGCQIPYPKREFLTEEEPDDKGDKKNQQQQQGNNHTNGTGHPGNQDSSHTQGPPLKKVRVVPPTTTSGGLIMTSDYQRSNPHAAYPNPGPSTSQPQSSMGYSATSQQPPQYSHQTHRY
UniProt Q9UHV7: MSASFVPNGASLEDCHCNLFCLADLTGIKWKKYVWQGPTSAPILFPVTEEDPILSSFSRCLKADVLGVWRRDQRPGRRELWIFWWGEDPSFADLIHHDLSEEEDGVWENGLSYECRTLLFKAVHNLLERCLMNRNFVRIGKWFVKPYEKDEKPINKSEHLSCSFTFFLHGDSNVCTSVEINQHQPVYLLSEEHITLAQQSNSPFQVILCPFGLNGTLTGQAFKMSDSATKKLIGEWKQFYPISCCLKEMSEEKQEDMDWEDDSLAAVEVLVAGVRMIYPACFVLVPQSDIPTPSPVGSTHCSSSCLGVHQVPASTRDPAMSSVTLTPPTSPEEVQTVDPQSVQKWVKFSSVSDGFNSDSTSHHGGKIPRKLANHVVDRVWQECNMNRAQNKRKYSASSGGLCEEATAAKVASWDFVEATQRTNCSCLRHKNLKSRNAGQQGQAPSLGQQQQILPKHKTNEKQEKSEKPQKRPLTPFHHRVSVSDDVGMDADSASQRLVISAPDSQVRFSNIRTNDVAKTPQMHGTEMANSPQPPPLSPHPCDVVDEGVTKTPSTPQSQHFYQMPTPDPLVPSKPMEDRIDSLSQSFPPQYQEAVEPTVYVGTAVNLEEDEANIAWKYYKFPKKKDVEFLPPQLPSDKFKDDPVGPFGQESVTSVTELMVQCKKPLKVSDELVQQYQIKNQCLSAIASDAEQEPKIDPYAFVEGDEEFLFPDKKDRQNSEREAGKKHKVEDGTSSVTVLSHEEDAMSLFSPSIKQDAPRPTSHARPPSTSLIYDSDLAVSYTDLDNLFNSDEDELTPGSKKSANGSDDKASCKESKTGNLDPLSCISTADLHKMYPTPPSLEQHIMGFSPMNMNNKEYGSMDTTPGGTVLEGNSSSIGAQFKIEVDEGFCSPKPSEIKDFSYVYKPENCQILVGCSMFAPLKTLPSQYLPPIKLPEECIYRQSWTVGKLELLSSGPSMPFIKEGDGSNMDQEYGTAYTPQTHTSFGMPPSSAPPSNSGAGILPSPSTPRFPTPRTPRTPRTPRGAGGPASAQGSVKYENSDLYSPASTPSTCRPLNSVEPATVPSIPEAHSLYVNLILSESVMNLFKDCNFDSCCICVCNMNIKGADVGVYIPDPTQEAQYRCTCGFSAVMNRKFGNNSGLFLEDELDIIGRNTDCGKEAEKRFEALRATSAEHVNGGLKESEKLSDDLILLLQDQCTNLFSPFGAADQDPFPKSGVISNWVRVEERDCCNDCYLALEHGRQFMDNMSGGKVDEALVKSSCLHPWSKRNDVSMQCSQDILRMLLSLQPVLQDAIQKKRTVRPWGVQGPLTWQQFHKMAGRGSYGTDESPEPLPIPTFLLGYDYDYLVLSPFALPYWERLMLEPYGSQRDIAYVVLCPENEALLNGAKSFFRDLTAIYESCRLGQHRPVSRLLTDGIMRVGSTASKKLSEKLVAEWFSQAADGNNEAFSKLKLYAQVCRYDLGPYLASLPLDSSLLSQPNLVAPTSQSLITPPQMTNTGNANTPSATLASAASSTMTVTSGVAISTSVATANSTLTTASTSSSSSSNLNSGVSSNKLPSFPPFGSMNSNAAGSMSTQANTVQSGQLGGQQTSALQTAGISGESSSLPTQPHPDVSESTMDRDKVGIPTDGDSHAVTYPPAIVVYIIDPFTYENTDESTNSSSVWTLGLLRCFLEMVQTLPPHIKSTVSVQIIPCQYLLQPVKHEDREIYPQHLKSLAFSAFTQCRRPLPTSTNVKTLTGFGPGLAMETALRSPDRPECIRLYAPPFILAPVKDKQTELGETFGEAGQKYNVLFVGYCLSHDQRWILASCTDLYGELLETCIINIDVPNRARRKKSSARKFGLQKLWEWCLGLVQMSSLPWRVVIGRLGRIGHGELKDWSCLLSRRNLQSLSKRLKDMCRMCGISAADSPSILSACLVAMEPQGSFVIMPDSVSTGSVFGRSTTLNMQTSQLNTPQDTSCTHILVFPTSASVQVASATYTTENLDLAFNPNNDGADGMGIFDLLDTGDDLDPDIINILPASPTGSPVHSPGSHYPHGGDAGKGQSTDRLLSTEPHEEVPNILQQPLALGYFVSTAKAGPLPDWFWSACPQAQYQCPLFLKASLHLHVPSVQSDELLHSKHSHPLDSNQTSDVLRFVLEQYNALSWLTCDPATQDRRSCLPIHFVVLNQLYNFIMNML
UniProt P19447: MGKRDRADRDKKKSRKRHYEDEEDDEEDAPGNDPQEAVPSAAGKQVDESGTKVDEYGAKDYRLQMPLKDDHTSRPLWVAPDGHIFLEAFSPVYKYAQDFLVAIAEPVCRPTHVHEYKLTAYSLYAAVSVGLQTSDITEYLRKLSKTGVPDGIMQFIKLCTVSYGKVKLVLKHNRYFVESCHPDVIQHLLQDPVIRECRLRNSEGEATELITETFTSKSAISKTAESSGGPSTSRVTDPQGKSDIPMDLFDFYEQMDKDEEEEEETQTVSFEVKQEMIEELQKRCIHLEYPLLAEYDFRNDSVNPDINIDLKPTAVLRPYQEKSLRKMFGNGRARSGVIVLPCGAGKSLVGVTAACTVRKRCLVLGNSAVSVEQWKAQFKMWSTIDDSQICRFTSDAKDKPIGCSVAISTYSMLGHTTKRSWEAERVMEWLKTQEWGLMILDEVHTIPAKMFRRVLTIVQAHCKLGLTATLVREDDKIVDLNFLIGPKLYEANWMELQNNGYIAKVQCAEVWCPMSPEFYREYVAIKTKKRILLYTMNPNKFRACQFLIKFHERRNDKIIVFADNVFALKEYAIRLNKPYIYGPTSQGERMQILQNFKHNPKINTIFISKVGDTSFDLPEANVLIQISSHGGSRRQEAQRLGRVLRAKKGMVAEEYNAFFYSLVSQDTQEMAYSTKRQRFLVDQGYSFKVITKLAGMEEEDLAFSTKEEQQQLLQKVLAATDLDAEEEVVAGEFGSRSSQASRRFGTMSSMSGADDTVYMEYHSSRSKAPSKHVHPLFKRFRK
UniProt P32780: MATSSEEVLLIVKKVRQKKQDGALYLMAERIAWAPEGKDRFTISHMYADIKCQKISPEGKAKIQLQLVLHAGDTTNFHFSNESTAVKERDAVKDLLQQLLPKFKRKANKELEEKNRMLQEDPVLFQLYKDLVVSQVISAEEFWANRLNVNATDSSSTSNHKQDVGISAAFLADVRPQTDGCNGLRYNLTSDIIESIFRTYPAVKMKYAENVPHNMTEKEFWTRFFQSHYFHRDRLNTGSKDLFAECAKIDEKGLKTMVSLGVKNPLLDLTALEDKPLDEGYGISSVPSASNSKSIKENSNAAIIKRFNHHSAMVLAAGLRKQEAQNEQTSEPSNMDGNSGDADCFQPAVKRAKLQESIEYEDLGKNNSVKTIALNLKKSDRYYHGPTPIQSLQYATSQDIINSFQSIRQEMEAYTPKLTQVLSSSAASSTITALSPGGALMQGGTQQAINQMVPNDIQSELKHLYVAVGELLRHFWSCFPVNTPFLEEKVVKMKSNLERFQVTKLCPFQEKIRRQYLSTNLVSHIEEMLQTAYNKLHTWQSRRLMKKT

Results are given in words; binding and its absence hold for the method and conditions named. Binding seen in cells or lysates may run through a third protein. These calls come from enrichment with a bait or labelling near it, and not all partners need be listed.

Experiment [1] concerns the target cyclin-dependent kinase (CDK) 7, MAC-tagged (UniProt P50613). The experiment is described as follows: affinity purification with mass spectrometry.
Experiment [2] shares this target. The experiment is described as follows: proximity labelling.
Experiment [3] addresses cyclin-dependent kinase (CDK) 8, MAC-tagged (UniProt P49336). In words: affinity purification with mass spectrometry + proximity labelling.
In experiment [4] the target is mediator of RNA polymerase II transcription subunit 13, MAC-tagged (UniProt Q9UHV7). The experiment is described as above.

Consider “TFIIH basal transcription factor complex helicase XPB subunit (from UniProt P19447 1-782)”, for which the binding entry in experiment [1] and in experiment [2] was “binds” each time.

Consider TFIIH1 (from UniProt P32780 1-548), for which the binding entry in experiment [1] and in experiment [2] was “binds” each time.

B1: MED23 (protein, UniProt Q9ULK4 1-1368)
chain: METQLQSIFEEVVKTEVIEEAFPGMFMDTPEDEKTKLISCLGAFRQFWGGLSQESHEQCIQWIVKFIHGQHSPKRISFLYDCLAMAVETGLLPPRLVCESLINSDTLEWERTQLWALTFKLVRKIIGGVDYKGVRDLLKVILEKILTIPNTVSSAVVQQLLAAREVIAYILERNACLLPAYFAVTEIRKLYPEGKLPHWLLGNLVSDFVDTFRPTARINSICGRCSLLPVVNNSGAICNSWKLDPATLRFPLKGLLPYDKDLFEPQTALLRYVLEQPYSRDMVCNMLGLNKQHKQRCPVLEDQLVDLVVYAMERSETEEKFDDGGTSQLLWQHLSSQLIFFVLFQFASFPHMVLSLHQKLAGRGLIKGRDHLMWVLLQFISGSIQKNALADFLPVMKLFDLLYPEKEYIPVPDINKPQSTHAFAMTCIWIHLNRKAQNDNSKLQIPIPHSLRLHHEFLQQSLRNKSLQMNDYKIALLCNAYSTNSECFTLPMGALVETIYGNGIMRIPLPGTNCMASGSITPLPMNLLDSLTVHAKMSLIHSIATRVIKLAHAKSSVALAPALVETYSRLLVYMEIESLGIKGFISQLLPTVFKSHAWGILHTLLEMFSYRMHHIQPHYRVQLLSHLHTLAAVAQTNQNQLHLCVESTALRLITALGSSEVQPQFTRFLSDPKTVLSAESEELNRALILTLARATHVTDFFTGSDSIQGTWCKDILQTIMSFTPHNWASHTLSCFPGPLQAFFKQNNVPQESRFNLKKNVEEEYRKWKSMSNENDIITHFSMQGSPPLFLCLLWKMLLETDHINQIGYRVLERIGARALVAHVRTFADFLVYEFSTSAGGQQLNKCIEILNDMVWKYNIVTLDRLILCLAMRSHEGNEAQVCYFIIQLLLLKPNDFRNRVSDFVKENSPEHWLQNDWHTKHMNYHKKYPEKLYFEGLAEQVDPPVQIQSPYLPIYFGNVCLRFLPVFDIVIHRFLELLPVSKSLETLLDHLGGLYKFHDRPVTYLYNTLHYYEMHLRDRAFLKRKLVHAIIGSLKDNRPQGWCLSDTYLKCAMNAREENPWVPDDTYYCRLIGRLVDTMAGKSPGPFPNCDWRFNEFPNPAAHALHVTCVELMALAVSGKEVGNALLNVVLKSQPLVPRENITAWMNAIGLIITALPEPYWIVLHDRIVSVISSPSLTSETEWVGYPFRLFDFTACHQSYSEMSCSYTLALAHAVWHHSSIGQLSLIPKFLTEVLLPIVKTEFQLLYVYHLVGPFLQRFQQERTRCMIEIGVAFYDMLLNVDQCSTHLNYMDPICDFLYHMKYMFTGDSVKEQVEKIICNLKPALKLRLRFITHISKMEPAAVPPQAMNSGSPAPQSNQVPVSLPVTQ
For B1, the binding entry in experiment [3] and in experiment [4] was “binds” in each case.

B2: MED6 (protein, UniProt O75586 1-246)
chain: MAAVDIRDNLLGISWVDSSWIPILNSGSVLDYFSERSNPFYDRTCNNEVVKMQRLTLEHLNQMVGIEYILLHAQEPILFIIRKQQRQSPAQVIPLADYYIIAGVIYQAPDLGSVINSRVLTAVHGIQSAFDEAMSYCRYHPSKGYWWHFKDHEEQDKVRPKAKRKEEPSSIFQRQRVDALLLDLRQKFPPKFVQLKPGEKPVPVDQTKKEAEPIPETVKPEEKETTKNVQQTVSAKGPPEKRMRLQ
Consider B2, for which the binding entry in experiment [3] and in experiment [4] was “binds” throughout.

B3: MED27 (protein, UniProt Q6P2C8 1-311)
chain: MADVINVSVNLEAFSQAISAIQALRSSVSRVFDCLKDGMRNKETLEGREKAFIAHFQDNLHSVNRDLNELERLSNLVGKPSENHPLHNSGLLSLDPVQDKTPLYSQLLQAYKWSNKLQYHAGLASGLLNQQSLKRSANQMGVSAKRRPKAQPTTLVLPPQYVDDVISRIDRMFPEMSIHLSRPNGTSAMLLVTLGKVLKVIVVMRSLFIDRTIVKGYNENVYTEDGKLDIWSKSNYQVFQKVTDHATTALLHYQLPQMPDVVVRSFMTWLRSYIKLFQAPCQRCGKFLQDGLPPTWRDFRTLEAFHDTCRQ
Turning to B3, the binding result in experiment [3] and in experiment [4] was “binds” each time.

B4: MED4 (protein, UniProt Q9NPJ6 1-270)
chain: MAASSSGEKEKERLGGGLGVAGGNSTRERLLSALEDLEVLSRELIEMLAISRNQKLLQAGEENQVLELLIHRDGEFQELMKLALNQGKIHHEMQVLEKEVEKRDSDIQQLQKQLKEAEQILATAVYQAKEKLKSIEKARKGAISSEEIIKYAHRISASNAVCAPLTWVPGDPRRPYPTDLEMRSGLLGQMNNPSTNGVNGHLPGDALAAGRLPDVLAPQYPWQSNDMSMNMLPPNHSSDFLLEPPGHNKENEDDVEIMSTDSSSSSSESD
In the case of B4, the binding result in experiment [3] and in experiment [4] was “binds” throughout.

B5: MED16 (protein, UniProt Q9Y2X0 1-877)
chain: MCDLRRPAAGGMMDLAYVCEWEKWSKSTHCPSVPLACAWSCRNLIAFTMDLRSDDQDLTRMIHILDTEHPWDLHSIPSEHHEAITCLEWDQSGSRLLSADADGQIKCWSMADHLANSWESSVGSLVEGDPIVALSWLHNGVKLALHVEKSGASSFGEKFSRVKFSPSLTLFGGKPMEGWIAVTVSGLVTVSLLKPSGQVLTSTESLCRLRGRVALADIAFTGGGNIVVATADGSSASPVQFYKVCVSVVSEKCRIDTEILPSLFMRCTTDLNRKDKFPAITHLKFLARDMSEQVLLCASSQTSSIVECWSLRKEGLPVNNIFQQISPVVGDKQPTILKWRILSATNDLDRVSAVALPKLPISLTNTDLKVASDTQFYPGLGLALAFHDGSVHIVHRLSLQTMAVFYSSAAPRPVDEPAMKRPRTAGPAVHLKAMQLSWTSLALVGIDSHGKLSVLRLSPSMGHPLEVGLALRHLLFLLEYCMVTGYDWWDILLHVQPSMVQSLVEKLHEEYTRQTAALQQVLSTRILAMKASLCKLSPCTVTRVCDYHTKLFLIAISSTLKSLLRPHFLNTPDKSPGDRLTEICTKITDVDIDKVMINLKTEEFVLDMNTLQALQQLLQWVGDFVLYLLASLPNQGSLLRPGHSFLRDGTSLGMLRELMVVIRIWGLLKPSCLPVYTATSDTQDSMSLLFRLLTKLWICCRDEGPASEPDEALVDECCLLPSQLLIPSLDWLPASDGLVSRLQPKQPLRLQFGRAPTLPGSAATLQLDGLARAPGQPKIDHLRRLHLGACPTEECKACTRCGCVTMLKSPNRTTAVKQWEQRWIKNCLAVEGRGPDACVTSRASEEAPAFVQLGPQSTHHSPRTPRSLDHLHPEDRP
For the molecule B5, the binding entry in experiment [3] and in experiment [4] was “binds” throughout.

B6: MED24 (protein, UniProt O75448 1-989)
chain: MKVVNLKQAILQAWKERWSDYQWAINMKKFFPKGATWDILNLADALLEQAMIGPSPNPLILSYLKYAISSQMVSYSSVLTAISKFDDFSRDLCVQALLDIMDMFCDRLSCHGKAEECIGLCRALLSALHWLLRCTAASAERLREGLEAGTPAAGEKQLAMCLQRLEKTLSSTKNRALLHIAKLEEASSWTAIEHSLLKLGEILANLSNPQLRSQAEQCGTLIRSIPTMLSVHAEQMHKTGFPTVHAVILLEGTMNLTGETQSLVEQLTMVKRMQHIPTPLFVLEIWKACFVGLIESPEGTEELKWTAFTFLKIPQVLVKLKKYSHGDKDFTEDVNCAFEFLLKLTPLLDKADQRCNCDCTNFLLQECGKQGLLSEASVNNLMAKRKADREHAPQQKSGENANIQPNIQLILRAEPTVTNILKTMDADHSKSPEGLLGVLGHMLSGKSLDLLLAAAAATGKLKSFARKFINLNEFTTYGSEESTKPASVRALLFDISFLMLCHVAQTYGSEVILSESRTGAEVPFFETWMQTCMPEEGKILNPDHPCFRPDSTKVESLVALLNNSSEMKLVQMKWHEACLSISAAILEILNAWENGVLAFESIQKITDNIKGKVCSLAVCAVAWLVAHVRMLGLDEREKSLQMIRQLAGPLFSENTLQFYNERVVIMNSILERMCADVLQQTATQIKFPSTGVDTMPYWNLLPPKRPIKEVLTDIFAKVLEKGWVDSRSIHIFDTLLHMGGVYWFCNNLIKELLKETRKEHTLRAVELLYSIFCLDMQQVTLVLLGHILPGLLTDSSKWHSLMDPPGTALAKLAVWCALSSYSSHKGQASTRQKKRHREDIEDYISLFPLDDVQPSKLMRLLSSNEDDANILSSPTDRSMSSSLSASQLHTVNMRDPLNRVLANLFLLISSILGSRTAGPHTQFVQWFMEECVDCLEQGGRGSVLQFMPFTTVSELVKVSAMSSPKVVLAITDLSLPLGRQVAAKAIAAL
With B6, the binding entry in experiment [3] and in experiment [4] was “binds” each time.

B7: MED17 (protein, UniProt Q9NVC6 1-651)
chain: MSGVRAVRISIESACEKQVHEVGLDGTETYLPPLSMSQNLARLAQRIDFSQGSGSEEEEAAGTEGDAQEWPGAGSSADQDDEEGVVKFQPSLWPWDSVRNNLRSALTEMCVLYDVLSIVRDKKFMTLDPVSQDALPPKQNPQTLQLISKKKSLAGAAQILLKGAERLTKSVTENQENKLQRDFNSELLRLRQHWKLRKVGDKILGDLSYRSAGSLFPHHGTFEVIKNTDLDLDKKIPEDYCPLDVQIPSDLEGSAYIKVSIQKQAPDIGDLGTVNLFKRPLPKSKPGSPHWQTKLEAAQNVLLCKEIFAQLSREAVQIKSQVPHIVVKNQIISQPFPSLQLSISLCHSSNDKKSQKFATEKQCPEDHLYVLEHNLHLLIREFHKQTLSSIMMPHPASAPFGHKRMRLSGPQAFDKNEINSLQSSEGLLEKIIKQAKHIFLRSRAAATIDSLASRIEDPQIQAHWSNINDVYESSVKVLITSQGYEQICKSIQLQLNIGVEQIRVVHRDGRVITLSYQEQELQDFLLSQMSQHQVHAVQQLAKVMGWQVLSFSNHVGLGPIESIGNASAITVASPSGDYAISVRNGPESGSKIMVQFPRNQCKDLPKSDVLQDNKWSHLRGPFKEVQWNKMEGRNFVYKMELLMSALSPCLL
Take B7: the binding result in experiment [3] and in experiment [4] was “binds” throughout.
